Data as given in PubChem BioAssay AID1259308 (NCATS, 2017).

Assay: 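Candidate targets for better recombinant protein yield in mammalian cells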 (primary screen)
Cell system: human HEK293 embryonic kidney cells stably expressing firefly luciferase (HEK-CMV-Luc2-Hygro)
Reagents: single siRNA against human genes, 0.8 pmol siRNA per well
Timing: 72 h
Measured: 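Luciferase light (ONE-Glo) measured on one replicate plate set and viability (CellTiter-Glo) on the other, scaled to a negative control siRNA, with robust z-scores and luciferase per cell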
Reading the numbers: total luciferase, z-score and total luciferase, % of control: higher = more reporter protein produced; luciferase per cell, z-score: higher = more reporter output per viable cell; viable cells, % of control: higher = more viable cells
Active means: 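An siRNA counts as active if its total luciferase robust z-score exceeds 3; genes with two or more such siRNAs out of three were retested with fresh siRNAs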
Calls: active = raised luciferase; inactive = no rise
The deposit covers about 59,000 reagents; shown is a part drawn at random. Of all reagents, about 1,510 (2.6%) were called active. 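Calls use total luciferase alone and ignore viability, so some active siRNAs may act by altering cell number.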 A number with no mark means an inactive call. The numbers tell different reagents against one gene apart.

gene knocked down | siRNA no. | total luciferase, z-score | total luciferase, % of control | luciferase per cell, z-score | viable cells, % of control
CCL27 (C-C motif chemokine ligand 27) | 1 | -0.436 | 73.2 | -0.692 | 98.2
CCL27 (C-C motif chemokine ligand 27) | 2 | -0.759 | 66.8 | -1.23 | 103
CCL27 (C-C motif chemokine ligand 27) | 3 | -1.48 | 52.4 | -0.418 | 65.3
VWCE (von Willebrand factor C and EGF domains) | 1 | -0.265 | 76.6 | -0.906 | 109
VWCE (von Willebrand factor C and EGF domains) | 2 | 0.271 | 87.3 | -0.175 | 102
VWCE (von Willebrand factor C and EGF domains) | 3 | -2.6 | 30.3 | -1.63 | 51.9
PLA2G6 (phospholipase A2 group VI) | 1 | -0.18 | 78.3 | -0.758 | 107
PLA2G6 (phospholipase A2 group VI) | 2 | -1.15 | 59 | -1.23 | 91.2
PLA2G6 (phospholipase A2 group VI) | 3 | 0.404 | 89.9 | 0.185 | 95.7
TNFRSF13B (TNF receptor superfamily member 13B) | 1 | 0.00432 | 82 | 0.187 | 87.2
TNFRSF13B (TNF receptor superfamily member 13B) | 2 | 0.236 | 86.6 | 0.412 | 86.8
TNFRSF13B (TNF receptor superfamily member 13B) | 3 | 0.0698 | 83.3 | 0.591 | 79.6
HECW2 | 1 | -0.219 | 77.5 | -0.247 | 92.5
HECW2 | 2 | -0.26 | 76.7 | -0.166 | 89.6
HECW2 | 3 | -0.384 | 74.2 | -0.811 | 103

Reprinted from the listing (5 entries):
gene knocked down | siRNA no. | total luciferase, z-score | total luciferase, % of control | luciferase per cell, z-score | viable cells, % of control
PLA2G6 (phospholipase A2 group VI) | 1 | -0.18 | 78.3 | -0.758 | 107
PLA2G6 (phospholipase A2 group VI) | 2 | -1.15 | 59 | -1.23 | 91.2
PLA2G6 (phospholipase A2 group VI) | 3 | 0.404 | 89.9 | 0.185 | 95.7
TNFRSF13B (TNF receptor superfamily member 13B) | 1 | 0.00432 | 82 | 0.187 | 87.2
TNFRSF13B (TNF receptor superfamily member 13B) | 2 | 0.236 | 86.6 | 0.412 | 86.8

The results go on.
gene knocked down | siRNA no. | total luciferase, z-score | total luciferase, % of control | luciferase per cell, z-score | viable cells, % of control
LMAN1 (lectin, mannose binding 1) | 1 | -0.783 | 66.3 | 0.409 | 66.5
LMAN1 (lectin, mannose binding 1) | 2 | 1.07 | 103 | 1.05 | 87.5
LMAN1 (lectin, mannose binding 1) | 3 | -1.15 | 58.9 | -1.09 | 87.9
JAK1 (Janus kinase 1) | 1 | -2.1 | 40.1 | -0.541 | 51.7
JAK1 (Janus kinase 1) | 2 | -0.679 | 68.4 | -1.02 | 100
JAK1 (Janus kinase 1) | 3 | 1.99 | 122 | 1.37 | 94.6
FAM217A (family with sequence similarity 217 member A) | 1 | -0.314 | 75.6 | -0.424 | 94.5
FAM217A (family with sequence similarity 217 member A) | 2 | -1.66 | 48.9 | -1.43 | 79.6
FAM217A (family with sequence similarity 217 member A) | 3 | 0.792 | 97.6 | 1.3 | 77.5
PCDHGA1 (protocadherin gamma subfamily A, 1) | 1 | -1.36 | 54.8 | -1.57 | 92.5
PCDHGA1 (protocadherin gamma subfamily A, 1) | 2 | 0.224 | 86.4 | -0.204 | 102
PCDHGA1 (protocadherin gamma subfamily A, 1) | 3 | -1.95 | 43 | -2.25 | 86.8
MRM3 (mitochondrial rRNA methyltransferase 3) | 1 | 1.86 | 119 | 1.79 | 83
MRM3 (mitochondrial rRNA methyltransferase 3) | 2 | -0.226 | 77.4 | 1.18 | 63.5
MRM3 (mitochondrial rRNA methyltransferase 3) | 3 | 0.834 | 98.5 | 0.693 | 91.7
B3GALT1 (beta-1,3-galactosyltransferase 1) | 1 | 0.351 | 88.9 | 0.603 | 84.7
B3GALT1 (beta-1,3-galactosyltransferase 1) | 2 | -0.192 | 78.1 | -0.676 | 104
B3GALT1 (beta-1,3-galactosyltransferase 1) | 3 | 0.346 | 88.8 | 0.0885 | 96.9
ULK1 (unc-51 like autophagy activating kinase 1) | 1 | 0.149 | 84.8 | -0.0559 | 96.2
ULK1 (unc-51 like autophagy activating kinase 1) | 2 | -2.29 | 36.3 | -3.37 | 98.5
ULK1 (unc-51 like autophagy activating kinase 1) | 3 | 0.68 | 95.4 | 0.176 | 102
CAMKV (CaM kinase like vesicle associated) | 1 | -0.469 | 72.6 | 1.18 | 59.4
CAMKV (CaM kinase like vesicle associated) | 2 | 1.88 | 119 | 1.47 | 90.7
CAMKV (CaM kinase like vesicle associated) | 3 | -1.85 | 45.2 | -1.37 | 72.3
